From publication PMC10887741
These are yes or no findings as the source states them, for the method shown. A result given as binding can be weak or reduced; the word gives no strength. For some of these results: Sequences can lack the tags named with a protein. For some of these results: Binding seen in cells or lysates may run through a third protein. Each block holds one molecule with its values, some of them ahead of it.

Sequences of proteins named here, by UniProt entry; tags and fusion partners are left off. A change or cut given only in a name is not applied to a line headed by its entry.
UniProt Q8NFJ6: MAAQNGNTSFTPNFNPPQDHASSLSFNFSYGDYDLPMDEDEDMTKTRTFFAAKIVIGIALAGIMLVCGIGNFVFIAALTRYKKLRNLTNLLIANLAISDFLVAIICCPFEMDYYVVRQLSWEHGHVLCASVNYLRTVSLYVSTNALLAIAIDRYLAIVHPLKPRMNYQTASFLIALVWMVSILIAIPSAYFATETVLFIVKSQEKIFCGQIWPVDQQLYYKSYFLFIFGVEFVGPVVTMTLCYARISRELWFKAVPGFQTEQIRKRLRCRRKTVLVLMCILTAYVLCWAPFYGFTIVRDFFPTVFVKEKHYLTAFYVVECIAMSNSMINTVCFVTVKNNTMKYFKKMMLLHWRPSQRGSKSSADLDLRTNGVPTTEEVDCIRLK
UniProt P32121: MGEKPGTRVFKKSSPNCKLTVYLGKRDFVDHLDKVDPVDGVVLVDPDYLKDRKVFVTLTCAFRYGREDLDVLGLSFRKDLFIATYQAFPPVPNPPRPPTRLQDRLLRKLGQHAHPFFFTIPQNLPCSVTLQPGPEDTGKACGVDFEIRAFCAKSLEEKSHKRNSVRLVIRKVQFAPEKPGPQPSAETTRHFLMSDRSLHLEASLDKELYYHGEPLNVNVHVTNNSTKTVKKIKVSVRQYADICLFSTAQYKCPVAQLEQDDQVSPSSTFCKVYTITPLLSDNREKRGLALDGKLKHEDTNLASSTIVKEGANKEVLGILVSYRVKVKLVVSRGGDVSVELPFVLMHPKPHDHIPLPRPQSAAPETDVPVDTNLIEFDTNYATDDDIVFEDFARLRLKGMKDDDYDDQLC

Key:
[1] = target: PKR2-ΔC52 mutant-rLuc (UniProt Q8NFJ6); experiment: FRET or BRET; BRET in CHO cells stably expressing rGFP-β-arrestin-2, transiently transfected with a constant amount of receptor-rLuc and increasing amounts of MRAP2 vector; 5 μM coelenterazine in PBS; without or with PK2
[2] = target: T1, CT-MRAP2 (C-terminal domain of MRAP2, residues 78-204) (human) (UniProt Q96G30); experiment: co-IP; total proteins from E. coli co-expressing CT-MRAP2 FLAG and His-tagged β-arrestin-2 or p44; FLAG bind resin, native conditions; blots with anti-FLAG and anti-His
T1 sequence: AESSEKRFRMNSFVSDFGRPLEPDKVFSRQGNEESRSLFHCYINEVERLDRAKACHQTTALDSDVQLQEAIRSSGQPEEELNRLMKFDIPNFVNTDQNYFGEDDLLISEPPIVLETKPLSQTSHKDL

[3] = target: T2, hMRAP2-Glutathione S-Transferase (hMRAP2-GST) (human) (UniProt Q96G30); experiment: pull-down; GST fusion protein held on glutathione-Sepharose beads, buffer A (PBS, 1% Nonidet P 40, 1 mM EDTA), incubated with purified His-tagged protein from E. coli; eluted with GSH, Western blot; both purified
T2 sequence: T1 sequence

[4] = target: PKR2-ΔC52 mutant (UniProt Q8NFJ6); experiment: cross-linking; CHO cells co-expressing MRAP2 and WT PKR2 or PKR2-ΔC52 incubated with dithiobis(succinimidyl propionate) (2 mM); membrane proteins on SDS-PAGE, blot with anti-PKR2

binding [1]: binds
Molecule: fluorescent β-arrestin-2 (GFP-β-arrestin-2) (from UniProt P32121 1-409)

binding [2]: binds
binding [3]: binds
Molecule: p44 with His TAG (splicing variant of β-arrestin-2 with deletion of C terminal tail)

binding [4]: binds
B1: Melanocortin receptor accessory protein 2 (MRAP2) (protein, UniProt Q96G30 1-205)
chain: MSAQRLISNRTSQQSASNSDYTWEYEYYEIGPVSFEGLKAHKYSIVIGFWVGLAVFVIFMFFVLTLLTKTGAPHQDNAESSEKRFRMNSFVSDFGRPLEPDKVFSRQGNEESRSLFHCYINEVERLDRAKACHQTTALDSDVQLQEAIRSSGQPEEELNRLMKFDIPNFVNTDQNYFGEDDLLISEPPIVLETKPLSQTSHKDLD
